Among the data in the RNAGym collection of RNA variant scans (doi:10.1126/science.aae0568) are yeast fitness values, retold here.

First the molecules themselves.
B1: tRNA (parent)
chain: GUUCCGUUGGCGUAAUGGUAACGCGUCUCCCUCCUAAGGAGAAGACUGCGGGUUCGAGUCCCGUACGGAACG

Variants at the background level are over-represented here.

In the series the parent is B1. Briefly: yeast fitness relative to wild type (ratio to wild type); higher = fitter; tRNA-Arg(CCU), competitive growth, 37 C, YPD. In outline: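 For this measurement, the tRNA-Arg(CCU) gene was varied by chemical synthesis at a 3% per-site mutation rate across 69 sites, and each variant was placed at the native genomic locus in Saccharomyces cerevisiae. The pooled strains went through a 24-hour competition in YPD at 37°C in six parallel replicates, with amplicons from start and end populations read by 100-nucleotide paired-end sequencing. Darwinian fitness relative to wild type followed from the change in each genotype's frequency. Genotypes needed ≥ 100 starting reads, and estimates < 0.5 were set to 0.5.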
In the case of GCUCCGUUGGCGUAAGGGUAACGCGUCUCCCUCCUAAGGAGAAGACUGCGGGUUCGAGUCCCGUACGGGUCG, the yeast fitness is not above 0.5.
For GUUCCGUUGGCGUAAUGGUUACGCGUCUCCCUCCUAUGGAGAAGACUGCGGGUUCGAGUCCCGUACGGAACG the value was 0.811; for GUUCAGUUGGCGUAUUGGUAUCGCGUCUCCCUCCUAAGGAGAAGACUGUGGGUUCGAGUCCCGUACGGAACG, not above 0.5.
For GUUCCGUUGGCGUAAUAGUAACGCGUCUCCUUCCUAAGGAGAAGACUCCGGGUUGGAGUCCCGUACGGUACG the value was not above 0.5; for GUUCCGUUGGCGUAAUGGUAACGCGUCUCCCGCCUAAGGAGAAGACUGCGGGUUCGAGUCCCGUACGGCACG, 0.848.
Next, GGUCCGUUGGGGUAAUGGUAACGCGUCUCCCUCCUAAGGAGAAGACUGCGGGUUCGAGUCCCUUACGGAACG: not above 0.5; GUUCCGUUGGCGUAGUGGUAACGCGUCUCCCUCGUAAGGAGCAGACUGCGGGUUCGAGUCCCGUACGGAACG: not above 0.5; GAUCCGUUGGCGUAAUGGGAACGCGUCUGCCUCCUAAGGAGAAGACUGAGCGUUCGAGUCCCGUCCGGAACG: not above 0.5.
Consider GUUCCGCUGGCGUAAUGGUAACGCGUCUCCCUCCUAAGGAACAGACUGCGGGUUCGCGUCCCGUACGGAACG, for which the yeast fitness is not above 0.5.
For GUUCCGUUGGAGUAAUGGUAACGCGUCUCCGUCCUAAGGAGAAGACUGCAGGUUCGAGUCCCGUACGGAACG the value was not above 0.5.
GUGCCGUUGGCGUAAUGAUAACGCGUCUCGCUCCUAAGGAUAAGACUGGGGGUUCGAGUCGCGUACGGAACG: the yeast fitness is not above 0.5.
With GUUCCGUUGCCGUACUGGUAACGCGUCUCCAUCCUAAGGAGAAGAAUGCGGGUUCGAGUCCCGUACGGAACG, the yeast fitness is not above 0.5.
In the case of GUUCCGUUGGCGUAAUGGUCACGUGUCUCCCUCGUAAGGAGAAGACUGCGGGUUCGAAUCCCGUACGGAACG, the yeast fitness is not above 0.5.
On to GUUCCAUUGGCGUAAUGGUAACGCGUCUCACUCCUAAGGAGAAGUCUGCGGGUUCGAGUCCCAUACGGAACG, for which the yeast fitness is not above 0.5.
Consider GUUCCGUUAGCGUAAUGGUAACGCGACUCCCUCCUAAGGAGAUGACUGCGGGUUCGAGUCCCGCUCGGAACG, for which the yeast fitness was not above 0.5.
For GUUCCGUUGGGGUAAUGGUAACGCGUUUCCCUCCUAAGGAGAAGACUGCGGGUUCGAGUCCCGUAUGGAACG the value was not above 0.5.
For GUUCCGUUGGCGUAGUGGUAACGGGACUCCCUCCUAAGGAGAAGACUGCGGAUUCGAGUCCCGUACACAACG the value was 0.561; for GAUCCGUUGGCGUAACGGUAACGCGUCUCCCUCCUAAGGGGAUGACUGCGGGUUCGAGUCCCGUACGGAACG, not above 0.5; for GUCCCGUUGGCGUAAUGGUAACGCGUCUCUCUCCUAGGGAGAAGACUGCGGGUUCGAGACCCGUACGGAACG, not above 0.5.
Next, GUUCCGUUGGCGUAAUGGUAACGCGUCUCCCUCCUUAGGAGAAAAUUGCGGGUUCGGGUCCCGUACGGAACG: not above 0.5; GUUCCGUUCGCGUAAUGGUAACGCGUCUUCCUCCUUAGGAGAAGACUGCGGGUUCGAGUCCCGUACGGAACG: not above 0.5; GUUCCCUUGGCGUAAUGGUAACGCGUCUCCCUCCUAAGGAGAAGACUGCGGGUUCGAGACCCGUAAGGAACG: not above 0.5.
GUUCCGUUGGCGUAAUGGUAACGCGUCUCCCUCUUAAGGAGAAGAGUGCGGGUUCGAGUCCCAUCCGGAACG: the yeast fitness was not above 0.5.
For GUUCCGUUGGAGUAAUGGAAACGCGUCUACCACCUAAGGAGAAGACUGCGGGUCGGAGUGCCGUACGGAUCG the value was not above 0.5.
Regarding GUUCCGUUGGCGUAAUGGUAACGCGUCUUGCUCAUAAGGAGAAGACUGCGGGUUCGAGUCCCGUACGGAACG, the yeast fitness was not above 0.5.
As to GUUUCCUUGGCGUAAUGGUACCGCGUCUCGCUCCUAAGGAGAAGACUGCGGGUUUGAGUGCCGUACGGAACG, the yeast fitness is not above 0.5.
With GUUCCGUAGGAGUAAUGGUAACGAGUCUACCUCUUAAGGAGAAGACUGCGGGUUCGAGUCGCGUCCGGAACG, the yeast fitness was not above 0.5.
Next, GUUCCGGUGGCGUAAUGGUAACGCGUCUCCCUCCUAAGGAGAAGACUGCGGGUUCGAAUCACGUACGGAACG: not above 0.5.
Next, GUUCCGUUGGCGUAAUCGUAGCGCGUCUCCCUCCUAAGGAGAAGACUGCGGGUUCGAGUCUUGUACGGAACG: not above 0.5; GUUCCGUUGGCGUAAUGGCAACGCAUCACCCUCCUAAGGAGGAGACUGCGGGUUCCAGUCCCGUACGGAACG: not above 0.5; GUGCCGUUGGCGUAAUGGUAACGCGUCUCCCUCCUAAGGAGAAGACUGCGGGUUCGAGUCCGGUACGGAACG: 0.739.
As for GUUCCGUUGGCGUAAUGGUAACGCCUCUUCCUCCUAAGGAGAAGCCUGCGGGUUCGAAUCCCGUACGGAACG, the yeast fitness was not above 0.5.
Next, GAUCCGUUGGCGUAAUGGUAACGCGUCUCCCUCCUAAGGAGACGACUGCGGGAUCGAGUCCCGUACGGAGCG: not above 0.5; GUUCCGUUGGCGUAAUGGUAACGCGUCUCCCUCCUAAGGAGAACACUGCGGGUUCGAGUCCCGUGCGGACCG: 0.682.
Regarding GUUCCGUUGGCGUAAUGGUAAUGCGUCUCCCACCUAAGGAGAAGACUGCGGGUUCCAGUACGGUACGGAACG, the yeast fitness was not above 0.5.
Turning to GUUCCGUUGGCGUAAUCGUAACGCGUCUCCCUCCUAAGGAGAGGAACGCGGCUUCGAGUCCCGUACGGAACG, the yeast fitness is not above 0.5.
For GCUCCGUUGGCGUAAUGGUAACGCGUCUCCCUCCUAAGGAGAACACUGCGGGUUCGAGUCCCGUAAGGAACG, the yeast fitness is not above 0.5.
Next, GUUCCGUUGGCGUAAGGGUACCGCAUCUCCCUCCUAAGGAGAGGACUGCGGGUUCGAGACCCGUACGGAACG: not above 0.5.
